Data from the supplement of paper PMC5949888.
Most values lie at the floor of the assay. Slopes are relative: functional sequences can read slightly below zero.

What follows are substances tested on Saccharomyces cerevisiae PS128 hsf1 delta, HSF1(1-493) fusion (assay: growth estimate (transactivation domain function in HSF1 fusion, heat-shock survival) (a.u. (slope of normalised read count over time)); higher = stronger growth at 37°C, i.e. more transactivation activity). Conditions: library: random library.

Substance | growth estimate
RLLFHAEWSLA | < -0.25
PVMDSCVGHICGPFSRRLAF | < -0.25
EGCVGGRQGAACTRVLQGVT | < -0.25
RGHSLLYLV | < -0.25
INRASSKMTQETHPFYQQYW | < -0.25
HICHPV | < -0.25
CKSGKLGRTARTLTSHTDCQ | < -0.25
HLDPSEVLDAGGGWFNPAGW | < -0.25
HPLRKAAIDICLVRL | -0.196
IRAQMKIFHYTARVGTGVLS | < -0.25
DIFPAGIT | < -0.25
LYGIYINPVGLRNKRQTVGR | < -0.25
VTAANFVISPMIGFDDGERT | < -0.25
RAVSVPYYGYRFSEPRLSLC | < -0.25
QSRDLG | < -0.25
VKGPMDPRL | < -0.25
CAFGAEVGRHPL | -0.0503
SLNVELLEHYEVL | < -0.25
MSGCPQSLGLPYVSCILMVG | < -0.25
LCSARLCHRSLNARGVDFPG | < -0.25
SVEGCLYNVRSTTLTTPQAA | < -0.25
WGLSFTPPVRS | < -0.25
HRESRLHRG | < -0.25

Rewritten as a markdown table: part of the list above

| Substance | growth estimate |
| --- | --- |
| RLLFHAEWSLA | < -0.25 |
| PVMDSCVGHICGPFSRRLAF | < -0.25 |
| RGHSLLYLV | < -0.25 |

Following part.

Substance | growth estimate
SEVPWRQAEVRGR | < -0.25
FGATIRRSIGNG | < -0.25
CLSGPVVLRRCIVYRFI | < -0.25
LPPPTG | < -0.25
HFRKGVWLEWS | < -0.25
GRPWSAGPRGHYT | < -0.25
KSGC | < -0.25
SAKF | < -0.25
PPLVSTVPEGTPLLQKPPLA | < -0.25
AQPNCVENAESGLLHQFEPC | < -0.25
FTSGRHQGFGAPKRLMPPTR | < -0.25
IVGILSLAYGRCAGTLPQHG | < -0.25
SLVATKPNAPRI | < -0.25
LTSYYPGTQFTSPFLPAVLC | < -0.25
AVSRCHLVATVFRISSRLTT | < -0.25
SRKGHSATGTKSATRSGSSD | < -0.25
VMVRSERH | < -0.25
SAYW | < -0.25
LNMKV | < -0.25
LPKSLNLSTGEPFQLSNKIG | < -0.25
QDYCRHGCEVQIH | < -0.25
ERRAEGLGLKLLGGRGL | < -0.25
IPEDS | < -0.25

Single entries from the list.
Entry for LPKSLNLSTGEPFQLSNKIG under growth estimate: < -0.25
Entry for VMVRSERH under growth estimate: < -0.25
Entry for SLVATKPNAPRI under growth estimate: < -0.25

Next part.

Substance | growth estimate
GEVMRYCHLPRRRDPAVIAR | < -0.25
SVCLVRVREVEVVMIGILPV | < -0.25
CVVYPVCSGSRHRVKLVCRP | < -0.25
EMLRELRTRAVPRATLVLDE | < -0.25
KESFHTEGNRAESAHRAGDV | < -0.25
GRRCGRVVTVLIKHLSFSVV | < -0.25
IRNMPLGETRSRRSGGP | < -0.25
FRRGLGIRARGCVSNAGKL | < -0.25
FQIFEVN | < -0.25
SRYGCFRISEERTIRRLSTV | < -0.25
VLVVHIVGRVMLGSYRYYGP | < -0.25
TRRHRLAGTVASRARNVTGT | < -0.25
GCIGKVSSRTRELRR | < -0.25
HHH | < -0.25
LTPVIFSPWPGASVCHLKFR | < -0.25
FAVNLNSGRKGPSTTQR | -0.216
GLSMRSKSWWVDTPRPVAFC | < -0.25
LCRCGNRAIELRDMFDQNVQ | < -0.25
KALCFFGIIARCASAWTRT | < -0.25
YTPCPATQLAPGGNRSHEYE | < -0.25
IKSAVRIYCFNRTPPDAQLR | < -0.25
TGGRGLSGVFGLNPSLRN | < -0.25
CSQV | < -0.25

Substance | growth estimate
ANLAPRSQRTVIKDNEPFAA | < -0.25
AEEDLEGFGGEGGFKACKYF | < -0.25
SDGWDTTPAGS | < -0.25
GTVCHYHDQDSSDRVTRSD | < -0.25
VMSQDYGTR | < -0.25
TTCQHLLSSG | < -0.25
SEQPDGLSQEGARRVSPLAW | < -0.25
RGWSG | < -0.25
VCHPGSIGIGSPGIR | < -0.25
SGKVL | < -0.25
FLSCSKEVPPTEGFVGGPVI | < -0.25
PHAR | < -0.25
GHESSRLMVSTLRKRSQCWR | < -0.25
VVFRLVRLLACQSASEPWVS | < -0.25
AAEEHG | < -0.25
FEGLPPRVEE | < -0.25
RERCPTQV | < -0.25
LAISCLPYPSSKC | < -0.25
IDQRRTKTGLFDIFYQWV | < -0.25
NPHVVENTWGL | < -0.25
SLTVG | < -0.25
FRYGLTRNSLIESGGQLGIG | < -0.25
LGPLWIPP | < -0.25

Substance | growth estimate
RAWRVRCGT | < -0.25
CSEPLSAWRLNFVSTGCLGV | < -0.25
EGLTSENMIVEILKPPCVQH | < -0.25
LLTVASQLFLRGFEQR | < -0.25
NGPTGSESRFDETASRRHTD | < -0.25
KCADPVFLCQLGWCRHFTRG | < -0.25
VSQTLSVVRHPPTIGSPRKI | < -0.25
VRSANEGHKLFSSLSRYPQR | < -0.25
DRAYSFRRLNGTLEHEMSLD | < -0.25
RDVMFFDKWSPCLCCFCAPP | < -0.25
CTER | < -0.25
KSNLSNRLELRFGLPSGPQT | < -0.25
GGERGRRGTFVIAAESTCHT | < -0.25
DTM | < -0.25
ERR | < -0.25
RKGRRDFPDTTF | < -0.25
LLRIESAF | < -0.25
FPWVLYALLESHSPNSDDSQ | < -0.25
TMSAPGEQGIDVTGSLRSCH | -0.25
GGRPCA | < -0.25
SVVRSTQYIRTTLRNYSDPW | < -0.25
YPAGFDSAHRKELTSFAALA | < -0.25
LRHG | < -0.25

Substance | growth estimate
FVRCTVIFRTRVR | < -0.25
DLR | < -0.25
EDLVRFRP | < -0.25
FSKRAAKLHYLRSLAG | < -0.25
CGFLACLRTFK | < -0.25
VGPR | < -0.25
RKASR | < -0.25
GGWLSQDANTRGSDARKHSA | < -0.25
SQRRWRGEGPTPLPITLVAE | < -0.25
TPSPCRSTDRRGVVLTH | < -0.25
HRPPRPQRALIKT | < -0.25
NASGL | < -0.25
RRLVSEGLVHWWCTELVLLN | < -0.25
SQVA | < -0.25
QLLINGCR | < -0.25
SLTMGGDVVVEYS | -0.243
LQFECDM | < -0.25
RTP | < -0.25
ETFHLMPA | < -0.25
THYGTG | < -0.25
KGEGQGEVPSAYRVVVLSVT | < -0.25
RGESHSRVSRSLPTRIGGQG | < -0.25
SPVLGNPEWLADGSPPPPSR | < -0.25

Substance | growth estimate
ARATSWEKLPGPTAGFAA | < -0.25
PTNRTLGPR | < -0.25
KVTLIRD | < -0.25
DVNLR | < -0.25
PSHGSDVGG | < -0.25
GEYSWTSSVDYSSCSPIR | < -0.25
LVQTYDAPIVTTEN | < -0.25
CRLKLVREVLGPRQFVFTLS | < -0.25
GKARAAGVNSVMGPSCKRPE | < -0.25
PRLLDALKLGSHCPCQT | < -0.25
CFKCTLAE | < -0.25
MLSA | < -0.25
TLHTMS | < -0.25
YSVVVISLSRDCAPPPGA | < -0.25
GRGFVAIIRMACARLLLILA | < -0.25
GRLVLLLGAQARWVSLARCS | < -0.25
AVCA | < -0.25
DVRLRRAFSAKIIGMYYYAG | < -0.25
RISRMPGL | < -0.25
CSVLAQGFMNPETGWLAVIT | < -0.25
RDWCCCLRNDIGYGGKYRSR | < -0.25
